These results are taken from US10562947B2 (MOERAE MATRIX, INC., priority 2011, dated 2020).

Plain letter strings leave the end groups untold.

This data set in a line: general procedure: Fmoc solid-phase peptide synthesis; Fmoc-Ala-Wang Resin; HOBt/DIC; recoupling by symmetrical anhydride (DIC). To be noted: acetate salt.

As for YARAAARQARAKALARQLGVAA, the step yield (purification step, purification and lyophilization steps) is recorded as 50-55%. Besides, for the setting “whole synthesis”, the crude mass result was “approximately 1250 grams”.
